These are yes or no findings as the source states them, for the method shown. Binding seen in cells or lysates may run through a third protein. Some results given as binding are weak or reduced against the parent protein; the word gives no strength.
Biological target: FGFR3 carrying the A391E mutation (Crouzon syndrome with Acanthosis Nigricans) (human) (UniProt P22607)
Assay: FRET or BRET; unpublished work, not shown; no ligand

By UniProt entry, the sequences of proteins in these tests, tags left out. Where a name states a change or a piece, a line headed by the entry shows the natural chain unless it says otherwise. Chains listed by the source or under a name are the forms on record and can include a tag or linker.
FGFR3 carrying the A391E mutation (Crouzon syndrome with Acanthosis Nigricans) (P22607, form named): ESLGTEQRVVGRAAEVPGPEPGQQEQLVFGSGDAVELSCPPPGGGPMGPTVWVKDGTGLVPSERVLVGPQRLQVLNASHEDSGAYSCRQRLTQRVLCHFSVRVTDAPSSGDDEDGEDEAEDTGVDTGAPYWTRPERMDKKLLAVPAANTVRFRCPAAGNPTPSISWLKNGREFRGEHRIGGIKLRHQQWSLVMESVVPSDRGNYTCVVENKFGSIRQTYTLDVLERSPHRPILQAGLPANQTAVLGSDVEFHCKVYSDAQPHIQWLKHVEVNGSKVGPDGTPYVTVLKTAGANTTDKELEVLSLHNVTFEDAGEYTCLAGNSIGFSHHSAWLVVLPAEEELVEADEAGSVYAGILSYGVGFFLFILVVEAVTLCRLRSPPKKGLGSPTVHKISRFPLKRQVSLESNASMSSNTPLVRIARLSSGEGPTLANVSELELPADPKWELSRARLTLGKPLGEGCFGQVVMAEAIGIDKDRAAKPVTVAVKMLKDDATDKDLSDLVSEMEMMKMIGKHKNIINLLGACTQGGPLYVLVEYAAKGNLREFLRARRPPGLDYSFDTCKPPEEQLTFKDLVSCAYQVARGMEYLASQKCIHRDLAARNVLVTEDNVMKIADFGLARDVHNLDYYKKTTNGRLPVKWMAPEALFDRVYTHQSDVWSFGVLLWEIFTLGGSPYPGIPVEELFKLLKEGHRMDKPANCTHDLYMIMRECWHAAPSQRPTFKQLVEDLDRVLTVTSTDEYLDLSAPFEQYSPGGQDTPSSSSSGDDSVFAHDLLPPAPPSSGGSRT

For “FGFR3 carrying the A391E mutation (Crouzon syndrome with Acanthosis Nigricans) (from UniProt P22607 23-806) (receptor)”, the binding was “binds”.
